Measured values as given in publication PMC7206116.
These are yes or no findings as the source states them, for the method shown. In cells and extracts the contact can be indirect. A yes stands for co-enrichment or nearness to the bait. Other partners may have been found.

Chains of the proteins cited; added tags and fusions are not shown.
UniProt P49407: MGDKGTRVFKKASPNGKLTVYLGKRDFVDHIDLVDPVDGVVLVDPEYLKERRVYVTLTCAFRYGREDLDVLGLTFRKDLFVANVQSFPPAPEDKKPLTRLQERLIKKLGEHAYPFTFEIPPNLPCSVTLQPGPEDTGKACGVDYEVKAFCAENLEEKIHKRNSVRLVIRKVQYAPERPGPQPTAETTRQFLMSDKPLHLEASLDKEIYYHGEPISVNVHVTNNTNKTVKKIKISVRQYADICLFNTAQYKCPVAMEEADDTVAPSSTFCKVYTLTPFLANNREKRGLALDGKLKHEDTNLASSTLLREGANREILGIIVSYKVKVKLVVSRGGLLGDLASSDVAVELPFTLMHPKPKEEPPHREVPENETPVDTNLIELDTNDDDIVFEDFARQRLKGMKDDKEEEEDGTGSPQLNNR
UniProt Q9NS91: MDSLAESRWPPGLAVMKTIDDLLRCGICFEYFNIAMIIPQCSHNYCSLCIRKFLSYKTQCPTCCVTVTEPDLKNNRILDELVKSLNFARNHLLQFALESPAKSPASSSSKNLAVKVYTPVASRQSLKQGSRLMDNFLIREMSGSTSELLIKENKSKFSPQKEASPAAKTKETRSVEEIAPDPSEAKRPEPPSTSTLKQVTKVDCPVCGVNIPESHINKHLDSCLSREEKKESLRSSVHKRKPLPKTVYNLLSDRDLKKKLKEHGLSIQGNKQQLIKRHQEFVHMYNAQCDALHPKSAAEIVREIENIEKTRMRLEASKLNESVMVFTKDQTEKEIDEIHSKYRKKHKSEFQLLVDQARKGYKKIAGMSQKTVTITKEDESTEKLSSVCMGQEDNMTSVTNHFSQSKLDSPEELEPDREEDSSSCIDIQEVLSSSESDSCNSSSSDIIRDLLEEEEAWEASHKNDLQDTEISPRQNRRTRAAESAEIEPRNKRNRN

Target: βarrestin-1 (immunoprecipitated from cells for mass spectrometry) (UniProt P49407)
Test: affinity purification with mass spectrometry; βarr1 complexes immunoprecipitated from cells in response to IR, SDS-PAGE, in-gel trypsin digestion, LC-MS/MS

Rad18 (found with βarr1 in cells by mass spectrometry) (from UniProt Q9NS91 1-495)
binding: binds
